From patent publication US20070148663A1 (TRUSTEES OF COLUMBIA UNIVERSITY IN THE CITY OF NEW YORK, published 2007) come the findings set out here.

Results are given in words; binding and its absence hold for the method and conditions named. Binding seen in cells or lysates may run through a third protein. Binding can be weak; no strength is given. Tags and fused reporters may be left off the sequences shown.

Experiment [1] has as its target endogenous APC (COS-7 cells). The experiment is described as follows: co-immunoprecipitation with anti-APC from transfected COS-7 cells, anti-EB1 western blot.
The target of experiment [2] is endogenous APC (COS-7 cells). The experiment can be described thus: co-immunoprecipitation from transfected COS-7 cells, anti-EB1 western blot. On the technique in general: Immunoblotting shows a protein as a band on a membrane.

B1: GST-EB1-C (other, mouse, UniProt Q61166 165-268, looked up)
chain: ATQRTTAAPKAGPGMVRKNPGVGNGDDEAAELMQQVKVLKLTVEDLEKERDFYFGKLRNIELICQENEGENDPVLQRIVDILYATDEGFVIPDEGGPQEEQEEY
notes: range 165-268; also called glutathione S-transferase fused to EB1-C; not shown: glutathione S-transferase (GST) tag, N-terminal, vector pGEX-2T
Turning to B1, the binding entry in experiment [1] and in experiment [2] was “binds” in each case.
